The text below walks through data of the supplement of paper PMC5949888.

Most values lie at the floor of the assay. Slopes are relative: functional sequences can read slightly below zero. A value given as a limit tells only on which side of the number the result lay.

For the data set, the system named is Saccharomyces cerevisiae PS128 hsf1 delta, HSF1(1-493) fusion. In words: growth estimate (transactivation domain function in HSF1 fusion, heat-shock survival) (a.u. (slope of normalised read count over time)); higher = stronger growth at 37°C, i.e. more transactivation activity. As to conditions: library: random library.
AVA: the growth estimate was < -0.25.

With GVEHWVRYSLRVRVVYCTSQ, the growth estimate was < -0.25.

MFVHRPSEKRQVRLILMLNG: the growth estimate is < -0.25.

Take AGLRVQGPVREVNSGD: the growth estimate is < -0.25.

On to LSIWRPAFEGQL, for which the growth estimate was < -0.25.

For GSSVQNRRAVVSSLNVPHPV, the growth estimate is -0.241.

LPCCIGFPGGEGP: the growth estimate was < -0.25.

Turning to VARNTANLAFTEKSRGWIRV, the growth estimate is < -0.25.

For SRR, the growth estimate is < -0.25.

In the case of CRSVKFRNR, the growth estimate is < -0.25.

Consider WYGNPWGLRFRARKPYLDDM, for which the growth estimate is < -0.25.

Take REGYFR: the growth estimate was -0.246.

For TCPLVRRRKIRV, the growth estimate is < -0.25.

For TVRQLETNFDGPVTLLQPAT, the growth estimate is < -0.25.

As to VRLCCCEANGVVSAPDVNLP, the growth estimate is < -0.25.

Regarding FRTLG, the growth estimate was < -0.25.

Consider LRRIGEELKRG, for which the growth estimate was < -0.25.

For the substance LMPSEVRVSMTSRRDMFVRF, the growth estimate is < -0.25.

As for SKTRLQERSADGWPTTVLYR, the growth estimate was < -0.25.

Consider LIRSTSDQGQSDTSNLIIDS, for which the growth estimate is < -0.25.

Consider RVSRLGQNTSMSVQMMAQHF, for which the growth estimate is < -0.25.

In the case of GAIVVT, the growth estimate was < -0.25.

For ICEECTDSGSKGPVKEDLTS, the growth estimate was < -0.25.

For RWPVGCSQLYGGLENFRGVC, the growth estimate is < -0.25.

For KRSQLLWSVT, the growth estimate was < -0.25.

As to QLALSACGQTPQTAA, the growth estimate was < -0.25.

For the substance LCNVEYAEAAYLGNFLASNW, the growth estimate is < -0.25.

On to TWLKVTLSWGVVTY, for which the growth estimate is < -0.25.

As to IWHLVAGIGAPPWY, the growth estimate was -0.221.

As to GLHKREGGSLVIPLADVAWM, the growth estimate is < -0.25.

With NMLIGVMLQDGTWNVQRYWS, the growth estimate is < -0.25.

For the substance IVLPAHGRLKVTCS, the growth estimate was < -0.25.

Regarding LSGE, the growth estimate was < -0.25.

Take KTAFTPHSK: the growth estimate was < -0.25.

As for PEVSYRRVLLP, the growth estimate was < -0.25.

NPSIGSHILAVHSRRRITSI: the growth estimate was < -0.25.

Regarding RCCMEEASDPRRSETAIGAP, the growth estimate is < -0.25.

VPN: the growth estimate was < -0.25.

Regarding LLCPTQG, the growth estimate was < -0.25.

WSGTSTRCGGYMGRYLCNRM: the growth estimate is < -0.25.

As for DRGSLEWKDGPERRI, the growth estimate was < -0.25.

As for TIGLAGLMHMVEEGHISWKG, the growth estimate was < -0.25.

With SARVVHSKLSRVQTETGNIT, the growth estimate is < -0.25.

Consider RYRAGSMWPPIITLGAGTRL, for which the growth estimate is < -0.25.

On to IAGGSTRHKLR, for which the growth estimate is < -0.25.

Consider LISTPIR, for which the growth estimate was < -0.25.

Consider APRWRWGSYASFHMTAMFRN, for which the growth estimate was < -0.25.

In the case of AIEVTEETARFRVTLRHKVP, the growth estimate is < -0.25.

As to RGILLGTW, the growth estimate was < -0.25.

As for SCGRQS, the growth estimate is < -0.25.

QTRIPVHLEMDPAFPIKGRL: the growth estimate was < -0.25.

Turning to VPEWYCARLLVLLAVFSILT, the growth estimate is < -0.25.

Turning to ELQEVGKTCSIKIS, the growth estimate is < -0.25.

VQMTDKVQP: the growth estimate is < -0.25.

On to LGRVRLRAHTTRVS, for which the growth estimate is -0.243.

Regarding EVWDYRDNRSSDP, the growth estimate is < -0.25.

Regarding TLDVITLGVCCVPRCTSGRW, the growth estimate is < -0.25.

Take GPVLSPGAEKTVCGATTFTY: the growth estimate is < -0.25.

As for EFIGESIVFSKTLKPAGFLQ, the growth estimate was < -0.25.

Turning to RPGDVVQMSVGHYA, the growth estimate was < -0.25.

LSISRGSSVRRCSLRR: the growth estimate is < -0.25.

Turning to SHIARRPVAKSKIPGSETSE, the growth estimate is < -0.25.

On to GIRNRAGQPKLFCIASIWAM, for which the growth estimate was < -0.25.

As to GSPKRAGQK, the growth estimate was < -0.25.

In the case of LDFG, the growth estimate was < -0.25.

With MESKSRVRW, the growth estimate was < -0.25.

With IFVTTYTH, the growth estimate was < -0.25.

With RSGSSAY, the growth estimate was < -0.25.

As to AGAAPNGREPFPVHVSKYPT, the growth estimate is < -0.25.

As for GRYRSASIRAVVPLVLRSIA, the growth estimate was < -0.25.

QDSIRIGGPSSHVLTASYEH: the growth estimate was < -0.25.

Turning to LLNRIRSTSNAARPHRPRFR, the growth estimate is < -0.25.

For the substance GDEVR, the growth estimate is < -0.25.

With KYVCSDISGGSYYKRKTLLQ, the growth estimate is < -0.25.

On to RQSVGISIRGCNPTPSVWGR, for which the growth estimate was < -0.25.

On to DMGPRQEASGYLTLFSSAHA, for which the growth estimate is < -0.25.

Take EFSFVP: the growth estimate is < -0.25.

With SSYSLSSFSGYSSVVSL, the growth estimate is < -0.25.

RANLVLSRANAAYRTTALTN: the growth estimate is < -0.25.

Take NDGMRHGYHAICRGFNLLIN: the growth estimate is < -0.25.

For the substance NDDGERWWCHLVIRQWCRSL, the growth estimate was < -0.25.

For the substance VGGG, the growth estimate is < -0.25.

Take SEGRCHCVIQWPALGGQSSG: the growth estimate was < -0.25.

Turning to RNEASYCPIVNQTSPNST, the growth estimate was < -0.25.

With QKSLFGPKRSGGGKPPSDSS, the growth estimate was < -0.25.

Consider PASG, for which the growth estimate was < -0.25.

Turning to TSGTQVREHVQIDVGTGT, the growth estimate was < -0.25.

With RIRKGSRAFRQCVGFLGSTR, the growth estimate is < -0.25.

For ERLCEYRFGGPVMQI, the growth estimate was < -0.25.

With WHLRMTVYAIVYHPALGEMI, the growth estimate was < -0.25.

Consider VHLNGRGGVPSLCQRRQHQL, for which the growth estimate was < -0.25.

Consider ALEGSVFSTQYTWQKQGDSY, for which the growth estimate was -0.11.

Turning to ITTRGLMPPWLRIFSASNPR, the growth estimate is < -0.25.

With KCGQGSTGF, the growth estimate is < -0.25.

Turning to HSKHRPCPLRCDAHASRAGD, the growth estimate is < -0.25.

For the substance GTAVRTSRSRGNDLRTKCVP, the growth estimate is < -0.25.

With VHARVFHTDTQNGGMQFERI, the growth estimate is < -0.25.

On to QTFASWRRWTCRGLIFYRLG, for which the growth estimate was < -0.25.

On to GDFIPEVMDRVPFPHLCYSP, for which the growth estimate was < -0.25.

For LDLAKAGTLLTGPNRLAASR, the growth estimate is < -0.25.

On to DARRIALRIFLKG, for which the growth estimate is < -0.25.

As for RISAAMRMSDGSGLSLIVDH, the growth estimate is < -0.25.

Take QALLSRARLVGWRVTL: the growth estimate was < -0.25.

Turning to CRIPRVPVIVLW, the growth estimate was < -0.25.

On to DSKTIEGTARVGGVEA, for which the growth estimate is < -0.25.

For the substance GISLTLTSESGILAK, the growth estimate was < -0.25.

Take LVQPPRVPCLRHPLVLATV: the growth estimate is < -0.25.

As for PLTGIWCKQGTGALDQSGIP, the growth estimate is < -0.25.

In the case of SITKQEQFVQSPAVPGVATR, the growth estimate is < -0.25.

For the substance YEEPRRCLWHAGLRGLKQ, the growth estimate was < -0.25.

Take ARVYTISKNGAPLQGFHAAQ: the growth estimate is < -0.25.

HCWMVMVSERMGAVGSRAVE: the growth estimate was < -0.25.
